Experimental data from patent US8288111B2 (Abbott Laboratories, priority 2007, dated 2012).

Test system: anti-CsA antibody
Experiment: KD measurement by fluorescence polarization of Fluorescein-labeled CsA tracer and binding equilibrium estimates
Details: calculated for equilibrium with excess antibody

## Nc1nc2cccc(-c3ccc(CN4CCS(=O)(=O)CC4)cc3)n2n1 [Metabolite]
First Incubation Step, Metabolite 83 nM, Cyclosporine 17 nM
  % Bound: 10%
Second Incubation Step, Metabolite 2.5 nM, CsA 0.5 nM
  % Bound: 0.3%
